From US20090053198A1 (published 2009)
These are yes or no findings as the source states them, for the method shown. Some binding calls cover weakened binding; strength is not graded here.

The chains behind the UniProt entries cited, without tags or fusion partners. Where a name states a change or a piece, a line headed by the entry shows the natural chain unless it says otherwise. A line that says so, or that is headed by a name, gives the form on record, which may keep a tag or linker.
Hematopoietic Cell E-/L-selectin Ligand (HCELL), HECA-452-reactive glycoform of CD44 (P16070, form named): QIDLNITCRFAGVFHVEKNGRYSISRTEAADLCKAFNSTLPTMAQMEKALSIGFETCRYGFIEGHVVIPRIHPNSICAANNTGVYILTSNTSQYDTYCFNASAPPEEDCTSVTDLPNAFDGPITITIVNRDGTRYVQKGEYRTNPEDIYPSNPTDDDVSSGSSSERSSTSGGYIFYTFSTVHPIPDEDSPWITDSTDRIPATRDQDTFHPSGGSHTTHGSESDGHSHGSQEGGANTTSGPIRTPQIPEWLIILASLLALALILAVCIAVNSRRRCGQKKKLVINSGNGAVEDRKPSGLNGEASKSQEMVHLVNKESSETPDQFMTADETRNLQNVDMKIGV

Biological target: Hematopoietic Cell E-/L-selectin Ligand (HCELL), HECA-452-reactive glycoform of CD44 (human) (UniProt P16070)
Test: blot rolling assay: CHO-E perfused at 0.6 dyne/cm^2 over blotted ML-M membrane glycoproteins (˜100 kDa band); more interacting cells than on the ˜130 kDa band

binding: binds
B1: human E-selectin on CHO-E cells (receptor, UniProt P16581 22-610, looked up)
chain: WSYNTSTEAMTYDEASAYCQQRYTHLVAIQNKEEIEYLNSILSYSPSYYWIGIRKVNNVWVWVGTQKPLTEEAKNWAPGEPNNRQKDEDCVEIYIKREKDVGMWNDERCSKKKLALCYTAACTNTSCSGHGECVETINNYTCKCDPGFSGLKCEQIVNCTALESPEHGSLVCSHPLGNFSYNSSCSISCDRGYLPSSMETMQCMSSGEWSAPIPACNVVECDAVTNPANGFVECFQNPGSFPWNTTCTFDCEEGFELMGAQSLQCTSSGNWDNEKPTCKAVTCRAVRQPQNGSVRCSHSPAGEFTFKSSCNFTCEEGFMLQGPAQVECTTQGQWTQQIPVCEAFQCTALSNPERGYMNCLPSASGSFRYGSSCEFSCEQGFVLKGSKRLQCGPTGEWDNEKPTCEAVRCDAVHQPPKGLVRCAHSPIGEFTYKSSCAFSCEEGFELHGSTQLECTSQGQWTEEVPSCQVVKCSSLAVPGKINMSCSGEPVFGTVCKFACPEGWTLNGSAARTCGATGHWSGLLPTCEAPTESNIPLVAGLSAAGLSLLTLAPFLLWLRKCLRKAKKFVPASSCQSLESDGSYQKPSYIL
